Experimental data as given in PMC12528448, “Resistance to CDK7 inhibitors directed by acquired mutation of a conserved residue in cancer cells” (The EMBO Journal, 2025).
Several values for one entry are separate records, joined by “and”; a condition that tells them apart may be missing. Equal values may be shown once. This continues a long series; more values of the same kind are listed elsewhere.

Key:
MCF7 cells = assay: IncuCyte confluency growth, MCF7; format: cell-based, human
Experimental: (§1) To determine the IC50 of drug treatments on growth, cells were seeded in 96-well culture plates. Two days after seeding, the cells were treated with increasing concentrations of drugs and incubated for 4 days. Cell number was determined using the SRB assay (Skehan et al, [1990]), and IC50 values were calculated using non-linear regression curve fitting in GraphPad Prism v10. For all other growth experiments, cells were seeded into 96-well plates, and appropriate drugs were added 2 days after seeding. Cells were then incubated in an IncuCyte Zoom live-cell imager, with cell confluency measured every 6 h. Cell doubling times were determined by non-linear curve fitting (exponential growth equation) in GraphPad Prism v10.

[1] = system: MCF7-CDK4^WT/D99N (CL4) cells; assay: IncuCyte confluency growth, heterozygous CDK4 D99N clone CL4; format: cell-based, human
Experimental: as §1

## CC(=O)c1c(C)c2cnc(Nc3ccc(N4CCNCC4)cn3)nc2n(C2CCCC2)c1=O [Palbociclib]
MCF7 cells; MCF7, 50nM Palbociclib, 0 Hours
  % Conluency: 5.81% and 4.92% and 9.85%
MCF7 cells; MCF7, 50nM Palbociclib, 12 Hours
  % Conluency: 9.07% and 7.97% and 15.01%
MCF7 cells; MCF7, 50nM Palbociclib, 24 Hours
  % Conluency: 12.88% and 11.08% and 21.58%
MCF7 cells; MCF7, 50nM Palbociclib, 36 Hours
  % Conluency: 16.26% and 13.95% and 25.45%
MCF7 cells; MCF7, 50nM Palbociclib, 156 Hours
  % Conluency: 98.19% and 83.49% and 99.44%
MCF7 cells; MCF7, 50nM Palbociclib, 168 Hours
  % Conluency: 99.47% and 89.55% and 99.79%
MCF7 cells; MCF7, 50nM Palbociclib, 180 Hours
  % Conluency: 99.91% and 94.98% and 99.50%
MCF7 cells; MCF7, 50nM Palbociclib, 192 Hours
  % Conluency: 99.88% and 97.80% and 99.95%
MCF7 cells; MCF7, 50nM Palbociclib, 204 Hours
  % Conluency: 99.82% and 98.81% and 99.97%
MCF7 cells; MCF7, 50nM Palbociclib, 216 Hours
  % Conluency: 99.72% and 99.43% and 99.88%
MCF7 cells; MCF7, 50nM Palbociclib, 228 Hours
  % Conluency: 99.65% and 99.54% and 99.53%
MCF7 cells; MCF7, 50nM Palbociclib, 240 Hours
  % Conluency: 99.60% and 99.14%
MCF7 cells; MCF7, 50nM Palbociclib, 252 Hours
  % Conluency: 99.58% and 99.64% and 99.20%
MCF7 cells; MCF7, 100nM Palbociclib, 0 Hours
  % Conluency: 5.96% and 5.11% and 9.12%
MCF7 cells; MCF7, 100nM Palbociclib, 12 Hours
  % Conluency: 9.38% and 8.10% and 14.16%
MCF7 cells; MCF7, 100nM Palbociclib, 24 Hours
  % Conluency: 13.50% and 11.31% and 20.17%
MCF7 cells; MCF7, 100nM Palbociclib, 36 Hours
  % Conluency: 16.63% and 13.71% and 23.01%
MCF7 cells; MCF7, 100nM Palbociclib, 144 Hours
  % Conluency: 64.71% and 92.44%
MCF7 cells; MCF7, 100nM Palbociclib, 156 Hours
  % Conluency: 95.54% and 70.80% and 96.02%
MCF7 cells; MCF7, 100nM Palbociclib, 168 Hours
  % Conluency: 98.36% and 76.85% and 98.13%
MCF7 cells; MCF7, 100nM Palbociclib, 180 Hours
  % Conluency: 99.12% and 83.92% and 96.98%
MCF7 cells; MCF7, 100nM Palbociclib, 192 Hours
  % Conluency: 99.58% and 88.48% and 99.16%
MCF7 cells; MCF7, 100nM Palbociclib, 204 Hours
  % Conluency: 99.68% and 90.68% and 99.79%
MCF7 cells; MCF7, 100nM Palbociclib, 216 Hours
  % Conluency: 99.43% and 92.90% and 99.75%
MCF7 cells; MCF7, 100nM Palbociclib, 228 Hours
  % Conluency: 99.23% and 94.71% and 99.36%
MCF7 cells; MCF7, 100nM Palbociclib, 240 Hours
  % Conluency: 99.26% and 95.89% and 98.93%
MCF7 cells; MCF7, 100nM Palbociclib, 252 Hours
  % Conluency: 99.17% and 97.06% and 98.62%
MCF7 cells; MCF7, 500nM Palbociclib, 0 Hours
  % Conluency: 5.68% and 4.70% and 9.43%
MCF7 cells; MCF7, 500nM Palbociclib, 12 Hours
  % Conluency: 9.05% and 7.22% and 14.73%
MCF7 cells; MCF7, 500nM Palbociclib, 36 Hours
  % Conluency: 15.41% and 12.51% and 23.55%
MCF7 cells; MCF7, 500nM Palbociclib, 156 Hours
  % Conluency: 46.22% and 34.56% and 61.68%
MCF7 cells; MCF7, 500nM Palbociclib, 168 Hours
  % Conluency: 48.93% and 37.64% and 66.31%
MCF7 cells; MCF7, 500nM Palbociclib, 180 Hours
  % Conluency: 50.40% and 42.26% and 62.99%
MCF7 cells; MCF7, 500nM Palbociclib, 192 Hours
  % Conluency: 53.86% and 45.23% and 67.65%
MCF7 cells; MCF7, 500nM Palbociclib, 204 Hours
  % Conluency: 59.31% and 48.73% and 70.39%
MCF7 cells; MCF7, 500nM Palbociclib, 216 Hours
  % Conluency: 62.70% and 52.14% and 74.38%
MCF7 cells; MCF7, 500nM Palbociclib, 228 Hours
  % Conluency: 66.25% and 56.49% and 78.80%
MCF7 cells; MCF7, 500nM Palbociclib, 240 Hours
  % Conluency: 68.95% and 60.03% and 80.83%
MCF7 cells; MCF7, 500nM Palbociclib, 252 Hours
  % Conluency: 72.33% and 62.89% and 83.29%
MCF7 cells; MCF7, 1000nM Palbociclib, 0 Hours
  % Conluency: 5.42% and 4.48% and 8.25%
MCF7 cells; MCF7, 1000nM Palbociclib, 12 Hours
  % Conluency: 8.70% and 6.97% and 12.50%
MCF7 cells; MCF7, 1000nM Palbociclib, 24 Hours
  % Conluency: 12.53% and 9.64% and 17.69%
MCF7 cells; MCF7, 1000nM Palbociclib, 36 Hours
  % Conluency: 14.93% and 11.85% and 20.63%
MCF7 cells; MCF7, 1000nM Palbociclib, 156 Hours
  % Conluency: 36.67% and 29.16% and 46.09%
MCF7 cells; MCF7, 1000nM Palbociclib, 168 Hours
  % Conluency: 38.61% and 30.34% and 47.45%
MCF7 cells; MCF7, 1000nM Palbociclib, 180 Hours
  % Conluency: 38.65% and 32.86% and 45.29%
MCF7 cells; MCF7, 1000nM Palbociclib, 192 Hours
  % Conluency: 40.80% and 34.16% and 47.37%
MCF7 cells; MCF7, 1000nM Palbociclib, 204 Hours
  % Conluency: 43.97% and 35.98% and 48.75%
MCF7 cells; MCF7, 1000nM Palbociclib, 216 Hours
  % Conluency: 45.95% and 37.06% and 50.37%
MCF7 cells; MCF7, 1000nM Palbociclib, 228 Hours
  % Conluency: 47.70% and 39.11% and 51.91%
MCF7 cells; MCF7, 1000nM Palbociclib, 240 Hours
  % Conluency: 49.98% and 41.67% and 53.33%
MCF7 cells; MCF7, 1000nM Palbociclib, 252 Hours
  % Conluency: 51.10% and 41.67% and 53.63%
[1]; MCF7 CDK4 WT/D99N CL4, 50nM Palbociclib, 120 Hours
  % Confluency: 66.64% and 78.14% and 82.99%
[1]; MCF7 CDK4 WT/D99N CL4, 50nM Palbociclib, 132 Hours
  % Confluency: 76.88% and 86.20% and 95.31%
[1]; MCF7 CDK4 WT/D99N CL4, 50nM Palbociclib, 144 Hours
  % Confluency: 88.78% and 88.02% and 99.54%
[1]; MCF7 CDK4 WT/D99N CL4, 50nM Palbociclib, 156 Hours
  % Confluency: 97.35% and 91.36% and 99.84%
[1]; MCF7 CDK4 WT/D99N CL4, 50nM Palbociclib, 168 Hours
  % Confluency: 99.58% and 95.17% and 99.79%
[1]; MCF7 CDK4 WT/D99N CL4, 50nM Palbociclib, 180 Hours
  % Confluency: 99.96% and 97.94% and 99.94%
[1]; MCF7 CDK4 WT/D99N CL4, 50nM Palbociclib, 192 Hours
  % Confluency: 99.99% and 99.20%
[1]; MCF7 CDK4 WT/D99N CL4, 50nM Palbociclib, 204 Hours
  % Confluency: 99.98% and 99.69%
[1]; MCF7 CDK4 WT/D99N CL4, 50nM Palbociclib, 216 Hours
  % Confluency: 99.98% and 99.82% and 99.94%
[1]; MCF7 CDK4 WT/D99N CL4, 50nM Palbociclib, 228 Hours
  % Confluency: 99.94% and 99.85% and 99.93%
[1]; MCF7 CDK4 WT/D99N CL4, 50nM Palbociclib, 240 Hours
  % Confluency: 99.95% and 99.87%
[1]; MCF7 CDK4 WT/D99N CL4, 50nM Palbociclib, 252 Hours
  % Confluency: 99.94% and 99.88% and 99.86%
[1]; MCF7 CDK4 WT/D99N CL4, 100nM Palbociclib, 120 Hours
  % Confluency: 64.25% and 78.80% and 72.42%
[1]; MCF7 CDK4 WT/D99N CL4, 100nM Palbociclib, 132 Hours
  % Confluency: 72.93% and 86.07% and 87.54%
[1]; MCF7 CDK4 WT/D99N CL4, 100nM Palbociclib, 144 Hours
  % Confluency: 85.75% and 88.44% and 96.06%
[1]; MCF7 CDK4 WT/D99N CL4, 100nM Palbociclib, 156 Hours
  % Confluency: 96.05% and 92.25% and 98.68%
[1]; MCF7 CDK4 WT/D99N CL4, 100nM Palbociclib, 168 Hours
  % Confluency: 99.30% and 96.26% and 98.93%
[1]; MCF7 CDK4 WT/D99N CL4, 100nM Palbociclib, 180 Hours
  % Confluency: 99.65% and 98.99% and 99.51%
[1]; MCF7 CDK4 WT/D99N CL4, 100nM Palbociclib, 192 Hours
  % Confluency: 99.96% and 99.76% and 99.95%
[1]; MCF7 CDK4 WT/D99N CL4, 100nM Palbociclib, 204 Hours
  % Confluency: 99.99% and 99.85%
[1]; MCF7 CDK4 WT/D99N CL4, 100nM Palbociclib, 216 Hours
  % Confluency: 99.99% and 99.94% and 99.96%
